Reference: patent publication US9255072B2, “Pyrazole compounds and thiazole compounds as protein kinases inhibitors” (National Health Rsearch Institutes, priority 2011, dated 2016)
Some entries share one result that the patent states for a list of compounds.

Amino acid sequences for entries named in this document (tags omitted). Residues count along the entry.
UniProt P35968, 789-1356: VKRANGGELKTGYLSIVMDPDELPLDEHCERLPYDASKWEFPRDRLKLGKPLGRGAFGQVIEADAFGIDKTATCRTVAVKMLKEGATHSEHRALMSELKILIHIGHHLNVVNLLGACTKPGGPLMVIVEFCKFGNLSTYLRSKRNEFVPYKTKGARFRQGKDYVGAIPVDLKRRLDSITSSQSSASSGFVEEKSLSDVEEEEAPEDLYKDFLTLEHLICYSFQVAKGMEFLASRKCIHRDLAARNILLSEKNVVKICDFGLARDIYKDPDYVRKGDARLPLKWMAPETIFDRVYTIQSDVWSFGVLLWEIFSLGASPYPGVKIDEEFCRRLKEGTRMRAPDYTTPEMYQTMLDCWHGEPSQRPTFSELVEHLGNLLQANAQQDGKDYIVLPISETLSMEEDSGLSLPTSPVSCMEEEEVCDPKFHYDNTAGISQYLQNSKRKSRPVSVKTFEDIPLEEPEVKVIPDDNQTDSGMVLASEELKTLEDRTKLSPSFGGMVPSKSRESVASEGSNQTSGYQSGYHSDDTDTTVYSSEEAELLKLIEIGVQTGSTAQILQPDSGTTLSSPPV

What was measured:
VEGFR2 = molecular target: T1, VEGFR2 (Homo sapiens, UniProt P35968); experiment: VEGFR2 Kinase-Glo kinase assay; format: biochemical; conditions: 1 μM ATP, bound in μM
T1 construct: GST-VEGFR2 (residues V789-V1356); GST (N); made in house; host or cells: Sf9 insect cells
Protocol: The recombinant GST-VEGFR1 (residues R781-I1338) or GST-VEGFR2 (residues V789-V1356) containing kinase domain were expressed in Sf9 insect cells. The kinase assay were carried out in 96-well plates with tested compound in a final volume of 50 μl reaction at 30° C. for 120 minutes with following components: 25 mM HEPES pH 7.4, 10 mM MgCl2, 4 mM MnCl2, 0.5 mM Na3VO4, 2 mM DTT, 0.02% Triton X100, 0.01% BSA, 1 μM ATP, 2 μM polyGlu4:Tyr peptide, 50˜100 ng recombinant VEGFR1 or VEGFR2. Following incubation, 50 μl Kinase-Glo Plus Reagent (Promega, Madison, Wis., USA) was added to each well and the mixture was incubated at 25° C. for 20 min. A 70-μL aliquot of each reaction mixture was transferred to a black microtiter plate and the luminescence was measured on Wallac Vector 1420 multilabel counter (PerkinElmer, Shelton, Conn., USA).

Aurora A = molecular target: T2, Aurora A (Homo sapiens, UniProt O14965); experiment: Aurora kinase A Kinase-Glo kinase assay; format: biochemical; conditions: 5 μM ATP, bound in μM
T2 construct: GST-Aurora A (residues S123-S401); GST (N); made in house; host or cells: Sf9 insect cells
T2 sequence (O14965 123-401): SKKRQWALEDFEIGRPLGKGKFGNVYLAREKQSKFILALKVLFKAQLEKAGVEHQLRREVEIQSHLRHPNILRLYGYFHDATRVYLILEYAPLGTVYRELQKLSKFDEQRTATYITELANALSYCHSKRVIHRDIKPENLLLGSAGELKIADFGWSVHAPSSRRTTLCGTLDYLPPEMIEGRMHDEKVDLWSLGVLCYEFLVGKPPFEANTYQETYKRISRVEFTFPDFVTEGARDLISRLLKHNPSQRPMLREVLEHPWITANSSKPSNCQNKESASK
Protocol: The recombinant GST-Aurora A (residues S123-S401) containing kinase domain were expressed in Sf9 insect cells. The kinase assay were carried out in 96-well plates with tested compound in a final volume of 50 μl reaction at 37° C. for 90 minutes with following components: 50 mM Tris-HCl pH 7.4, 10 mM NaCl, 10 mM MgCl2, 0.01% BSA, 5 μM ATP, 1 mM DTT and 15 μM tetra(LRRASLG) peptide, and 150 ng recombinant Aurora A. Following incubation, 50 μl Kinase-Glo Plus Reagent (Promega, Madison, Wis., USA) was added to each well and the mixture was incubated at 25° C. for 20 min. A 70-μL aliquot of each reaction mixture was transferred to a black microtiter plate and the luminescence was measured on Wallac Vector 1420 multilabel counter (PerkinElmer, Shelton, Conn., USA).

Q: Which results are given for `Cc1nc(Nc2ncc(-c3ccc(NC(=O)Nc4cc(C)on4)c(Cl)c3)s2)cc(N2CCN(C)CC2)n1` [Compound 107]?
A: IC50 (VEGFR2): < 1 µM; IC50 (Aurora A): < 1 µM
